Results taken from PMC12431657, “Discovery and mechanistic insights of dibenzoylmethane as a broad spectrum inhibitor of coronavirus” (PLOS Pathogens, 2025).
Structures can show the parent of a compound that is named as a salt. Where two headings read alike, the source gives them in different places. Among all 3,300 compounds or so, about 60 (2%) showed an effect of 50% or more. Some of the results follow.

Tested on: HCoV-OC43
Set-up: species or system RD; HTS, protection from HCoV-OC43 induced cell death, luminescent cell viability (CellCounting-Lite 2.0), inhibition rate
Details: 24 h post infection, 1 h compound pre-incubation, 10 µM, inhibitor

| SMILES | OC43 Inhibition rate [%] | OC43 Inhibition rate (OC43 Inhibition rate, 24 h) [%] |
| --- | --- | --- |
| COc1cc2ccc(=O)oc2c(O[C@@H]2O[C@H](CO)[C@@H](O)[C@H](O)[C@H]2O)c1O [Fraxin] | 3.6 | – |
| CC(C)(O[C@@H]1O[C@H](CO)[C@@H](O)[C@H](O)[C@H]1O)[C@H]1Cc2cc3ccc(=O)oc3cc2O1 [Nodakenin] | 0.2 | – |
| C=C1C(=O)O[C@@H]2/C=C(/C)C[C@H]3C=C(C[C@H](OC(=O)/C(C)=C\C)[C@@H]12)C(=O)O3 [Scabertopin] | -0.9 | – |
| O=C1CCCc2c(O)cccc21 [5-Hydroxy-1-tetralone] | 0 | – |
| CC[C@H]1OC(=O)C[C@@H](O)[C@H](C)[C@@H](O[C@@H]2O[C@H](C)[C@@H](O[C@H]3C[C@@](C)(O)[C@@H](O)[C@H](C)O3)[C@H](N(C)C)[C@H]2O)[C@@H](CC=O)C[C@@H](C)C(=O)/C=C/C(C)=C/[C@@H]1CO[C@@H]1O[C@H](C)[C@@H](O)[C@@H](OC)[C@H]1OC [Tylosin] | – | 24.7 |
| CC1=CC[C@@H](C(C)(C)O)CC1 [(-)-α-Terpineol] | – | -0.1 |
| CC(=O)CCc1ccc(O)cc1 [Raspberry ketone] | 0.8 | – |
| C[C@@H]1[C@H](O)[C@@H](C)/C=C/C=C/C=C/C=C/C=C/C=C/C=C/[C@H](O[C@@H]2O[C@H](C)[C@@H](O)[C@H](N)[C@@H]2O)C[C@@H]2O[C@](O)(C[C@@H](O)C[C@@H](O)[C@H](O)CC[C@@H](O)C[C@@H](O)CC(=O)O[C@H]1C)C[C@H](O)[C@H]2C(=O)O [amphotericin B] | 103.7 | – |
| CC(C)=CCCC(C)CC=O (stereo not drawn) [Citronellal] | -0.5 | – |
| OC[C@H]1O[C@@H]2O[C@H]3[C@H](O)[C@@H](O)[C@@H](O[C@H]4[C@H](O)[C@@H](O)[C@@H](O[C@H]5[C@H](O)[C@@H](O)[C@@H](O[C@H]6[C@H](O)[C@@H](O)[C@@H](O[C@H]7[C@H](O)[C@@H](O)[C@@H](O[C@H]8[C@H](O)[C@@H](O)[C@@H](O[C@H]1[C@H](O)[C@H]2O)O[C@@H]8CO)O[C@@H]7CO)O[C@@H]6CO)O[C@@H]5CO)O[C@@H]4CO)O[C@@H]3CO [β-Cyclodextrin] | -0.4 | – |
| CCNC(=O)CC[C@H](N)C(=O)O [L-Theanine] | 1.5 | – |
| N[C@H](CO)C(=O)O [D-Serine] | -1.1 | – |
| COc1cc(O)cc(CCc2ccc(O)c(OC)c2)c1 [Gigantol] | -0.3 | – |
| O=P(O)(O)O[C@H]1[C@H](OP(=O)(O)O)[C@@H](OP(=O)(O)O)[C@H](OP(=O)(O)O)[C@@H](OP(=O)(O)O)[C@H]1OP(=O)(O)O [Phytic acid (potassium)] | – | -0.6 |
| N[C@@H](CS)C(=O)O [L-Cysteine (hydrochloride hydrate)] | – | -0.2 |
| COc1cccc(CCc2cc(O)cc(OC)c2)c1 [3'-O-Methylbatatasin III] | 1 | – |
| C=C1[C@@H](O)[C@]2(O)OC[C@]34[C@H]2[C@@]2(C)[C@H](O)C(=O)C=C(C)[C@@H]2C[C@H]3OC(=O)[C@H](O)[C@@]14O [Eurycomanone] | 54.5 | – |
| C[C@@H](O)[C@@H](N)C(=O)O [D-Allothreonine] | -0.1 | – |
| C=C[C@@]1(C)CC[C@H]2C(=CC[C@@H]3[C@]2(C)CCC[C@@]3(C)C(=O)O)C1 [Isopimaric acid] | 16.1 | – |
| CN1CC(=O)NC1=N [Creatinine] | 0.6 | – |
| C=C(C)C1CC=C(C)C(O)C1 (mixture of isomers) [Carveol] | 1.3 | – |
| O=c1c(O[C@@H]2O[C@H](CO)[C@@H](O)[C@H](O)[C@H]2O[C@@H]2O[C@H](CO)[C@@H](O)[C@H](O)[C@H]2O)c(-c2ccc(O)cc2)oc2cc(O)cc(O)c12 [Kaempferol 3-O-sophoroside] | -0.1 | – |
| O=c1cc(-c2ccc(O)c(O)c2)oc2cc(O)cc(O)c12 [Luteolin] | 3.8 | – |
| C[C@H](CCC(=O)O)[C@H]1CC[C@H]2[C@@H]3C=CC4=CC(=O)CC[C@]4(C)[C@H]3CC[C@]12C [3-Oxo-4,6-choladien-24-oic acid] | -0.1 | – |
| C[C@H](CCC(=O)NCC(=O)O)[C@H]1CC[C@H]2[C@@H]3CC[C@@H]4C[C@H](O)CC[C@]4(C)[C@H]3C[C@H](O)[C@]12C [Glycodeoxycholic acid (monohydrate)] | – | -0.8 |
| CCCCC1OC(=O)C2=CCCCC21 (stereo not drawn) [Sedanolide] | -0.1 | – |
| COc1ccc(/C=C/C(=O)O)cc1 [4-Methoxycinnamic acid] | – | -0.5 |

| SMILES | OC43 Inhibition rate [%] | OC43 Inhibition rate (OC43 Inhibition rate, 24 h) [%] |
| --- | --- | --- |
| O=C(Nc1ccccc1)Nc1ccnc(Cl)c1 [Forchlorfenuron] | -2.5 | – |
| O=C1C[C@@H](c2ccc(O)cc2)Oc2cc(O[C@@H]3O[C@H](CO)[C@@H](O)[C@H](O)[C@H]3O[C@@H]3OC[C@](O)(CO)[C@H]3O)ccc21 [Liquiritigenin-7-O-β-D-glucopyranosyl-(1→2)-β-D-apiofuranoside] | -0.7 | – |
| CO[C@H]1O[C@@H]2O[C@@]3(C)CC[C@H]4[C@H](C)CC[C@@H]([C@H]1C)[C@@]24OO3 [Artemether] | -2.1 | – |
| NC(COP(=O)(O)O)C(=O)O (racemic) [DL-O-Phosphoserine] | -1.4 | – |
| O=C(O)C/C=C/CC(=O)O [Trans-2-butene-1,4-dicarboxylic acid] | 2.7 | – |
| O=c1c2ccccc2oc2ccccc12 [Xanthone] | 4.7 | – |
| COc1cc(OC)c2c(=O)cc(-c3ccc(OC)c(OC)c3)oc2c1 [5,7,3',4'-Tetramethoxyflavone] | 0 | – |
| COc1c(O[C@@H]2O[C@H](CO)[C@@H](O)[C@H](O)[C@H]2O)cc2occ(-c3ccc(O)cc3)c(=O)c2c1O [Tectoridin] | 25.2 | – |
| C=CC1(C)CCC(C(C)(C)O)O1 (stereo not drawn) [Linalool oxide] | -0.1 | – |
| O=c1cc(-c2ccc(O)c(O)c2)oc2c([C@@H]3O[C@H](CO)[C@@H](O)[C@H](O)[C@H]3O[C@H]3O[C@@H](CO)[C@@H](O)[C@@H](O)[C@@H]3O)c(O)cc(O)c12 [2"-O-beta-L-galactopyranosylorientin] | 1.4 | – |
| CC(=O)[C@H]1CC[C@H]2[C@@H]3CC=C4C[C@@H](OS(=O)(=O)O)CC[C@]4(C)[C@H]3CC[C@]12C [Pregnenolone monosulfate (sodium)] | 0.1 | – |
| C[C@@H]1O[C@@H](OCCC(=O)O)[C@H](O)C[C@H]1O [Ascr#5] | 0.5 | – |
| CSCCC(=O)O [3-(Methylthio)propionic acid] | -2 | – |
| CC(C)=CC(=O)O[C@H]1Cc2cc3ccc(=O)oc3cc2OC1(C)C [Decursin] | -0.3 | – |
| CC=C1[C@H](O[C@@H]2O[C@H](CO)[C@@H](O)[C@H](O)[C@H]2O)OC=C(C(=O)OC)[C@H]1CC(=O)OC[C@H]1O[C@@H](OCCc2ccc(O)cc2)[C@H](O)[C@@H](O)[C@@H]1O (stereo in doubt) [Specnuezhenide] | 1 | – |
| CCOCC(=O)O [Ethoxyacetic acid] | -3.2 | – |
| CCCCCCCC/C=C\CCCCCCCCCCCCCC(=O)O [Nervonic acid] | -2.1 | – |
| O=c1c(O)c(-c2ccc(O)c(O)c2)oc2cc(O[C@@H]3O[C@H](CO)[C@@H](O)[C@H](O)[C@H]3O)c(O)c(O)c12 [Quercetagitrin] | 1.8 | – |
| NCC(=O)O [Glycine] | 6.5 | – |
| COC(=O)C(O)CC(C)C (stereo not drawn) [Methyl 2-hydroxy-4-methylvalerate] | -0.2 | – |
| CC/C=C\CCO [cis-3-Hexen-1-ol] | -0.4 | – |
| CC(C)=CCC[C@](C)(O[C@@H]1O[C@H](CO)[C@@H](O)[C@H](O)[C@H]1O)[C@H]1CC[C@]2(C)[C@@H]1[C@H](O)C[C@@H]1[C@@]3(C)CC[C@H](O[C@@H]4O[C@H](CO)[C@@H](O)[C@H](O)[C@H]4O)C(C)(C)[C@@H]3CC[C@]12C [Ginsenoside F2] | -0.9 | – |
| O=C1OC[C@H]2OC(O)[C@H](O)[C@@H](O)[C@@H]2OC(=O)c2cc(O)c(O)c(O)c2-c2c(O)c(O)c3oc(=O)c4c(c(O)c(O)c5oc(=O)c2c3c54)-c2c1cc(O)c(O)c2O (mixture of isomers) [Punicalin] | -0.6 | – |
| CCc1ccc(O)cc1O [4-Ethylresorcinol] | -0.1 | – |
| CCCCCCCCCCCCCCCC(=O)NCCO [Palmitoylethanolamide] | -0.2 | – |
| CC1(C)CC[C@]2(C(=O)O)CC[C@]3(C)C(=CC[C@@H]4[C@@]5(C)CC[C@H](O[C@@H]6O[C@H](C(=O)O)[C@@H](O)[C@H](O[C@@H]7OC[C@@H](O)[C@H](O)[C@H]7O[C@@H]7O[C@H](CO)[C@@H](O)[C@H](O)[C@H]7O)[C@H]6O)C(C)(C)[C@@H]5CC[C@]43C)[C@@H]2C1 [Oleanolic acid-3-O-glucosyl(1-2)xylyl(1-3)glucosiduronic acid] | -0.1 | – |
| C[C@H]1CC[C@]2(NC1)O[C@H]1C[C@H]3[C@@H]4CC[C@H]5C[C@@H](O[C@@H]6O[C@H](CO)[C@H](O[C@@H]7O[C@H](CO)[C@@H](O)[C@H](O[C@@H]8OC[C@@H](O)[C@H](O)[C@H]8O)[C@H]7O[C@@H]7O[C@H](CO)[C@@H](O)[C@H](O)[C@H]7O)[C@H](O)[C@H]6O)CC[C@]5(C)[C@H]4CC[C@]3(C)[C@H]1[C@@H]2C [Tomatine] | 2 | – |

Part of the list above, with tabs.
SMILES	OC43 Inhibition rate [%]	OC43 Inhibition rate (OC43 Inhibition rate, 24 h) [%]
O=C(O)C/C=C/CC(=O)O [Trans-2-butene-1,4-dicarboxylic acid]	2.7	–
O=c1c2ccccc2oc2ccccc12 [Xanthone]	4.7	–
COc1cc(OC)c2c(=O)cc(-c3ccc(OC)c(OC)c3)oc2c1 [5,7,3',4'-Tetramethoxyflavone]	0	–
CCCCCCCCCCCCCCCC(=O)NCCO [Palmitoylethanolamide]	-0.2	–

Another view of some results above:
SMILES | OC43 Inhibition rate [%] | OC43 Inhibition rate (OC43 Inhibition rate, 24 h) [%]
CCOCC(=O)O [Ethoxyacetic acid] | -3.2 | –
CCCCCCCC/C=C\CCCCCCCCCCCCCC(=O)O [Nervonic acid] | -2.1 | –
